Data as given in PubChem BioAssay AID493246 (Drosophila RNAi Screening Center, 2011)

Test: 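Genes fly cells need to grow and stay alive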 (primary screen)
Cells: Drosophila Kc and S2R+ cells
Knock-down reagent: long dsRNA against Drosophila genes
Measurement: 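Raw, unnormalised count of remaining cells in each well; per-plate z-scores of cell number underlie the calls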
Scale: Kc cell number and S2R+ cell number: higher = more cells remaining
Rule for the call: 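Counted as a hit if cell number falls by a z-score of at least 3 within its plate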
The screen tested about 21,000 reagents; shown is an unselected part of those that have a named target and a result. Of all reagents, 429 (2%) were called active. 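Values are raw and not normalised between plates; calls rest on per-plate z-scores that were not deposited.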 Unmarked entries are inactive. A plus sign joins genes that one reagent is predicted to hit. Not given: the amount of reagent, the time to read-out.

gene knocked down | DRSC id | Kc cell number, rep 1 | Kc cell number, rep 2 | S2R+ cell number, rep 1 | S2R+ cell number, rep 2
CG34426 | DRSC09977 | 1.55e6 | 1.68e6 | 1.18e6 | 1.19e6
mod(mdg4) (modifier of mdg4) | DRSC13474 | 1.43e6 | 1.45e6 | 1.07e6 | 1.19e6
mod(mdg4) (modifier of mdg4) | DRSC13475 | 1.45e6 | 1.42e6 | 1.08e6 | 1.16e6
mod(mdg4) (modifier of mdg4) | DRSC13478 | 1.40e6 | 1.42e6 | 9.97e5 | 1.10e6
mod(mdg4) (modifier of mdg4) | DRSC13479 | 1.49e6 | 1.46e6 | 1.13e6 | 1.12e6
mod(mdg4) (modifier of mdg4) | DRSC15042 | 1.49e6 | 1.45e6 | 1.11e6 | 1.20e6
mod(mdg4) (modifier of mdg4) | DRSC17000 | 1.83e6 | 1.82e6 | 1.36e6 | 1.49e6
CG31198 | DRSC15891 | 1.49e6 | 1.54e6 | 1.20e6 | 1.29e6
Catsup (Catecholamines up) | DRSC03288 | 1.48e6 | 1.59e6 | 1.18e6 | 2.85e5
VGAT (Vesicular GABA Transporter) | DRSC07160 | 1.75e6 | 1.76e6 | 1.40e6 | 1.59e6
CG12692 | DRSC17881 | 1.52e6 | 1.55e6 | 1.02e6 | 1.21e6
chic (chickadee) | DRSC03507 | 1.34e6 | 1.23e6 | 1.12e6 | 1.29e6
jb (jean-baptiste) | DRSC20531 | 1.42e6 | 1.48e6 | 9.84e5 | 1.09e6
CG14314 | DRSC14793 | 1.42e6 | 1.34e6 | 1.03e6 | 1.14e6
CG12010 | DRSC08218 | 1.43e6 | 1.29e6 | 1.03e6 | 1.23e6
CG11927 | DRSC00337 | 1.21e6 | 1.30e6 | 5.73e5 | 7.53e5
CG10222 | DRSC09714 | 1.49e6 | 1.64e6 | 1.28e6 | 1.32e6
Srrm1 (Serine-arginine repetitive matrix 1) | DRSC09835 | 1.35e6 | 1.36e6 | 1.09e6 | 1.26e6
CalpC (Calpain C) | DRSC19873 | 1.60e6 | 1.61e6 | 1.21e6 | 1.29e6
Zasp66 (Z band alternatively spliced PDZ-motif protein 66) | DRSC08932 | 1.38e6 | 1.45e6 | 1.09e6 | 1.27e6
Zasp66 (Z band alternatively spliced PDZ-motif protein 66) | DRSC10631 | 1.49e6 | 1.50e6 | 1.23e6 | 1.19e6
Zasp66 (Z band alternatively spliced PDZ-motif protein 66) | DRSC10632 | 1.40e6 | 1.41e6 | 1.16e6 | 1.20e6
Cul2 (Cullin 2) | DRSC03710 | 1.33e6 | 1.46e6 | 1.09e6 | 1.15e6
Vha16-2 (Vacuolar H[+] ATPase 16kD subunit 2) | DRSC10873 | 1.28e6 | 1.30e6 | 1.33e6 | 1.38e6
Karybeta3 (Karyopherin beta 3) | DRSC12355 | 1.46e6 | 1.37e6 | 1.24e6 | 1.37e6
CG16719 | DRSC10222 | 1.40e6 | 1.42e6 | 1.31e6 | 1.26e6
CG33128 | DRSC00294 | 1.57e6 | 1.59e6 | 1.17e6 | 1.35e6
CG10494 | DRSC04072 | 1.30e6 | 1.40e6 | 1.20e6 | 1.23e6
CG32379 | DRSC10318 | 1.44e6 | 1.36e6 | 1.08e6 | 1.16e6
CG32633 | DRSC18987 | 1.57e6 | 1.71e6 | 1.04e6 | 1.17e6
bol (boule) | DRSC08964 | 1.41e6 | 1.46e6 | 1.16e6 | 1.30e6
bol (boule) | DRSC10444 | 1.59e6 | 1.57e6 | 1.20e6 | 1.13e6
bol (boule) | DRSC11329 | 1.54e6 | 1.52e6 | 1.24e6 | 1.17e6
CG4036 | DRSC02735 | 1.33e6 | 1.43e6 | 1.08e6 | 1.20e6
CG31921 | DRSC00013 | 1.54e6 | 1.49e6 | 1.01e6 | 1.14e6
CG2493 | DRSC02707 | 1.15e6 | 1.41e6 | 1.14e6 | 1.20e6
Gem2 (Gemin 2) | DRSC09721 | 1.53e6 | 1.51e6 | 1.32e6 | 1.44e6
Yip1d1 (Yip1 domain-containing 1) | DRSC02166 | 1.83e6 | 1.83e6 | 1.37e6 | 1.54e6
Alp12 (Alkaline phosphatase 12) | DRSC02515 | 1.53e6 | 1.64e6 | 1.27e6 | 3.79e5
Map205 (Microtubule-associated protein 205) | DRSC16732 | 4.03e5 | – | 6.05e5 | –
myo (myoglianin) | DRSC17174 | 4.73e5 | – | 8.39e5 | –
Dnaaf4 (Dynein axonemal assembly factor 4) | DRSC02405 | 1.54e6 | 1.72e6 | 1.30e6 | 1.46e6
CG31050 | DRSC13883 | 1.44e6 | 1.65e6 | 1.19e6 | 1.21e6
Or45a (Odorant receptor 45a) | DRSC07487 | 1.50e6 | 1.57e6 | 1.23e6 | 1.37e6
Cep164 (centrosomal protein 164) | DRSC20163 | 1.60e6 | 1.60e6 | 1.12e6 | 1.25e6
CG11755 | DRSC14374 | 1.49e6 | 1.67e6 | 1.35e6 | 1.57e6
CG16787 | DRSC04282 | 1.67e6 | 1.68e6 | 1.37e6 | 1.41e6
CG34163 | DRSC01219 | 1.65e6 | 1.74e6 | 1.08e6 | 1.19e6
PolE2 (DNA polymerase epsilon subunit 2) | DRSC09737 | 1.34e6 | 1.44e6 | 1.18e6 | 1.10e6
Mst98Cb (Male-specific RNA 98Cb) | DRSC16750 | 1.32e6 | 1.32e6 | 1.00e6 | 1.17e6
CG1486 | DRSC20508 | 1.70e6 | 1.68e6 | 1.08e6 | 1.22e6
CG8170 | DRSC07087 | 1.51e6 | 1.58e6 | 1.13e6 | 1.27e6
SmydA-8 (SET and MYND domain containing, arthropod-specific, member 8) | DRSC18797 | 1.56e6 | 1.61e6 | 1.07e6 | 1.20e6
Vinc (Vinculin) | DRSC18728 | 5.09e5 | – | 8.13e5 | –
CG6763 | DRSC16110 | 1.40e6 | 1.40e6 | 1.02e6 | 1.13e6
CG34135 + Nasp | DRSC16397 | 1.28e6 | 1.35e6 | 1.10e6 | 1.26e6
Ama (Amalgam) | DRSC12489 | 1.59e6 | 1.67e6 | 1.27e6 | 1.29e6
CG44325 | DRSC18423 | 1.63e6 | 1.65e6 | 1.17e6 | 1.14e6
CG12783 | DRSC14538 | 1.43e6 | 1.46e6 | 1.18e6 | 1.35e6

An excerpt from above, showing only “S2R+ cell number, rep 1”:
PolE2 (DNA polymerase epsilon subunit 2) [DRSC09737] = 1.18e6
Mst98Cb (Male-specific RNA 98Cb) [DRSC16750] = 1.00e6
CG1486 [DRSC20508] = 1.08e6
CG8170 [DRSC07087] = 1.13e6
SmydA-8 (SET and MYND domain containing, arthropod-specific, member 8) [DRSC18797] = 1.07e6
Vinc (Vinculin) [DRSC18728] = 8.13e5
CG6763 [DRSC16110] = 1.02e6
CG34135 + Nasp [DRSC16397] = 1.10e6
